From the supplement of paper PMC3334620
The full ranking holds about 33,000 sequences; the median of “E-score (-0.5 to 0.5)” is about -0.016, and the highest 2% start at about 0.3. The list shows a part of the results.

Molecular target: T1, Yer184c (UniProt P39961)
T1 sequence: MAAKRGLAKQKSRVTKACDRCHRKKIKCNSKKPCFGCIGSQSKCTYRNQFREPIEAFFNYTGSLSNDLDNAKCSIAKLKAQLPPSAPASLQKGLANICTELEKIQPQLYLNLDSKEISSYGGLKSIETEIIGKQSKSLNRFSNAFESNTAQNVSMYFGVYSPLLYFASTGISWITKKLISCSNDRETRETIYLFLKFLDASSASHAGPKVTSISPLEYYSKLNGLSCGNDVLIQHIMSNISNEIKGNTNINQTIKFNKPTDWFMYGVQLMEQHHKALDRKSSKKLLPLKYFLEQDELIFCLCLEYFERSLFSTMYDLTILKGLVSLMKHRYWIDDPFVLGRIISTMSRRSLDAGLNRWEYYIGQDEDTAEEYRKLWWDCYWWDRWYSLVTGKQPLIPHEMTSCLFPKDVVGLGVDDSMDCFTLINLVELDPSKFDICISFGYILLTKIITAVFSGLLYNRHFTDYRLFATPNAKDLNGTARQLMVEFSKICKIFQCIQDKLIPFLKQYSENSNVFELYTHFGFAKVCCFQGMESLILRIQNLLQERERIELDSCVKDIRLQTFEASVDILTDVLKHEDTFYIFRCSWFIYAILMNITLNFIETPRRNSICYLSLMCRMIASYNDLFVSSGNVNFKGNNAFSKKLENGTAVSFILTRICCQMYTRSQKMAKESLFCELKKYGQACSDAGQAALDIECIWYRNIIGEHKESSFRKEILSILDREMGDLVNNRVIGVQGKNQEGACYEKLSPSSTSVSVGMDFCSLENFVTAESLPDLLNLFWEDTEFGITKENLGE
Assay: PBM E-score (8-mer binding enrichment) (E-score (-0.5 to 0.5)); higher = stronger / more preferred TF binding
Conditions: protein concentration: 100 nM; construct: GST-full length
In short: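 Yeast transcription factors carrying a GST tag, as full-length proteins or DNA-binding domains, were produced by PURExpress in vitro transcription/translation. About 100-200 nM protein was applied to universal all-10-mer Agilent arrays, double-stranded by primer extension on fresh or once-stripped slides. Bound protein was detected with fluorescent anti-GST, and scans were normalised with masliner. The Universal PBM Analysis Suite gave each ungapped eight-base word, pooled with its reverse complement, an E-score, a modified Wilcoxon-Mann-Whitney statistic.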

Row | Sequence | PBM E-score
1 | CATGCAAC | -0.00764
2 | CCAGCGAC | -0.258
3 | CTAATAAC | 0.0535
4 | AGTATAGG | -0.0669
5 | CTTGCATC | -0.191
6 | ATGCCGCC | 0.0156
7 | CTCGCGCC | -0.0106
8 | AGCGACTA | -0.0667
9 | CAAGGCTA | 0.0654
10 | ACATCCTA | -0.194
11 | ACTCTTTA | -0.0985
12 | AATGCGTA | -0.0408
13 | GTGCGTGA | 0.0804
14 | AGGTTAGG | -0.131
15 | AACAAAAA | 0.228
16 | ACCCAGGT | -0.32
17 | TAGCACCA | -0.0818
18 | CGCAACTC | 0.185
19 | GCGAGTCA | -0.143
20 | CTTGCGAA | 0.174
21 | ACTGCGTC | -0.0743
22 | ATCGTCGG | 0.0834
23 | ACTCGTTC | 0.0874
24 | ACGGAAAT | 0.39
25 | GAACGCAA | 0.11

Pulled one by one from the entries so far:
Row | Sequence | PBM E-score
22 | ATCGTCGG | 0.0834
3 | CTAATAAC | 0.0535

The list goes on.

Row | Sequence | PBM E-score
26 | GCAGCAGC | -0.0995
27 | ACGTACAG | -0.293
28 | ACGACGCG | 0.0857
29 | CACTGTGG | -0.283
30 | GCACATCA | 0.0464
31 | AGGAGATG | -0.0402
32 | TAGACTAA | -0.0929
33 | CGTTGATA | 0.155
34 | GGGCCAAA | -0.0751
35 | GTTCCAGA | 0.12
36 | ATTCAATC | 0.195
37 | CGATGGGA | -0.0793
38 | TGGGTTAA | -0.11
39 | ACGTTACC | 0.0109
40 | CCAGGGAA | -0.288
41 | GTGTCACA | 0.12
42 | ACACCTGG | -0.202
43 | GAAGGTCC | -0.109
44 | GGTCAATA | -0.0777
45 | ATGGTTCG | 0.014
46 | CTAGTGTC | 0.0485
47 | AGGACGTG | -0.216
48 | GTTCTCGA | -0.0339
49 | AATTAATT | 0.0189
50 | TAAGTCGA | -0.0984

Some values from above.
ACGACGCG | PBM E-score: 0.0857
ATTCAATC | PBM E-score: 0.195
CGCAACTC | PBM E-score: 0.185
AATTAATT | PBM E-score: 0.0189
ACCCAGGT | PBM E-score: -0.32

The list goes on:

Row | Sequence | PBM E-score
51 | GTTCGATA | 0.0722
52 | AATCCCCG | 0.0812
53 | ATCCGGGC | 0.363
54 | AGGCCCCC | -0.269
55 | ACTTATGA | 0.101
56 | GCTTTTTA | 0.166
57 | CTGGATAA | 0.0598
58 | ACGTGAGA | -0.12
59 | AAAGGTCC | -0.0647
60 | ACCTTGGA | -0.233
61 | AGAGAGTG | -0.158
62 | GAGTTGGC | -0.17
63 | CCGGAAGA | 0.344
64 | AGTAAGGC | -0.0494
65 | AAACCATC | 0.12
66 | AACCGACG | 0.189
67 | CCCCAATA | -0.244
68 | AGTTCTAA | 0.121
69 | ACCACGCA | -0.127
70 | CATACGCC | -0.15
71 | AGTGACTC | -0.068
72 | CTGAGAGA | -0.0817
73 | ATCAGTGC | -0.0899
74 | GTAACCGA | 0.182
75 | ATGAAGTG | -0.132

Row | Sequence | PBM E-score
76 | CGACAGGC | -0.289
77 | ACGGGTAG | 0.0261
78 | ACCTCCAG | -0.0698
79 | AAAAGCGT | 0.11
80 | AAGCTATC | 0.191
81 | ATGTACGA | -0.0855
82 | CAGGAACG | -0.0846
83 | GTAATTCA | 0.148
84 | GCCATGAC | -0.229
85 | TCTCACCA | 0.0788
86 | GCGGATCA | 0.105
87 | CATATGCC | -0.0485
88 | ATTTGCCA | -0.0738
89 | AGATAACT | -0.116
90 | CCACAGCA | -0.0711
91 | CATCTTGC | 0.0249
92 | ACCGCAAT | 0.167
93 | AACACGCG | -0.00328
94 | ATGCTAAA | 0.0332
95 | CAAAAATC | 0.0392
96 | AGCGTAAA | 0.0799
97 | GGTGCGTA | -0.0974
98 | AAAATTTG | 0.168
99 | GGAGCACA | -0.0179
100 | AGCGCTCC | -0.0498

Row | Sequence | PBM E-score
101 | ATGGTGTA | -0.099
102 | GGGCTAAC | -0.0996
103 | AACTCATC | 0.122
104 | CGGCGTGC | 0.0195
105 | AACGGAAG | 0.179
106 | CCGTTCAA | 0.197
107 | GTAATCCA | 0.0517
108 | AGAATCAA | -0.00582
109 | ACTCCATG | -0.196
110 | CCGAAACC | 0.0844
111 | CACGCTAG | -0.189
112 | AACACTGA | 0.159
113 | GCAGAGCC | 0.0652
114 | CTATTGCC | -0.131
115 | ATTTAGCA | 0.0123
116 | TAGCAGAA | 0.0545
117 | AGGATGAG | -0.176
118 | TTCGAAAA | 0.185
119 | ACGTGGAA | -0.0515
120 | AGGGAGAC | -0.0969
121 | CCTCTGGC | -0.0934
122 | ATACTCCC | 0.059
123 | AAGTAGTA | 0.0145
124 | CGCGAATC | 0.0279
125 | ACCAAGAA | 0.245

Row | Sequence | PBM E-score
126 | GTGCTACA | -0.353
127 | GGATCCCC | -0.0124
128 | CATCTGCA | -0.0527
129 | CTTGGCCC | -0.367
130 | GTTGCCCA | -0.0158
131 | AGCTTGTG | -0.0907
132 | AACTGTAG | -0.0186
133 | AAGTATCC | 0.0522
134 | CGGACACG | 0.233
135 | AAATACAA | 0.196
136 | CGGGGGTC | -0.184
137 | CACTTCGC | -0.178
138 | GCCTGTAC | 0.092
139 | CCGGCTCG | 0.339
140 | CGACGAGA | -0.03
141 | CATGAAAA | 0.208
142 | GGGAACCC | -0.0204
143 | CTATGTTC | -0.0669
144 | AACAGAGA | 0.0223
145 | ATGGGGCC | -0.383
146 | CAATGAAG | 0.023
147 | AATAGTAT | 0.22
148 | CCATCAAC | -0.0312
149 | GCCAGCGA | -0.0285
150 | AGACCACT | -0.0965

Row | Sequence | PBM E-score
151 | AATAAGTC | -0.188
152 | AACTTATT | 0.202
153 | AACGGTTA | 0.0289
154 | ACACTAGC | -0.101
155 | GAGTGGGC | -0.21
156 | AATTCTGC | 0.128
157 | AAGCGGCG | 0.196
158 | TACATCAA | 0.00178
159 | AGATTTGG | -0.213
160 | CCGACTCG | 0.0655
161 | CACAACCA | 0.142
162 | CGATTACC | 0.0428
163 | AGGCTAAG | -0.197
164 | CTTCGCTA | 0.0075
165 | AGACAAAT | 0.0326
166 | TCAGAGAA | -0.119
167 | ACCGTATC | 0.11
168 | CATATAAG | 0.0407
169 | AGAGGATG | -0.121
170 | AACACAGG | -0.224
171 | ACCTCACG | -0.00421
172 | GGTATCGA | -0.0146
173 | CTAATGCC | -0.0432
174 | CGTGAACC | -0.0513
175 | AGTTCGAA | 0.202

Row | Sequence | PBM E-score
176 | CTTCGGTA | 0.235
177 | GCCTCTTA | -0.0286
178 | CACTGACC | -0.0388
179 | GTAACAAA | 0.193
180 | CTCTCAAC | -0.0176
181 | GAGCTACC | -0.133
182 | GCTGTGCC | -0.0243
183 | CCAATAAG | -0.0102
184 | TGCCCGAA | 0.0801
185 | GAGAAGCC | 0.023
186 | ACGCCTTA | -0.0515
187 | GTATCCGA | 0.304
188 | GAAGTCGC | -0.0769
189 | CCACGGAA | 0.338
190 | CTTCATAA | 0.164
191 | CCACTAGG | -0.305
192 | AATACCGC | 0.0781
193 | ACTTCCAT | 0.0934
194 | GGGTCCTA | -0.229
195 | CATTGACC | -0.0148
196 | CGACAACA | 0.114
197 | ATTTTCCA | 0.178
198 | GGTCGCAC | -0.076
199 | TGATATAA | -0.0658
200 | ATCCCCTG | -0.312

Nothing new here: entries from further up.
Row | Sequence | PBM E-score
54 | AGGCCCCC | -0.269
55 | ACTTATGA | 0.101
56 | GCTTTTTA | 0.166

Continuation:

Row | Sequence | PBM E-score
201 | ACTGCTTG | -0.0732
202 | ACTACAGA | 0.168
203 | CGTCAGTA | -0.0724
204 | AAAACGAG | 0.0101
205 | GAGGGAGC | -0.277
206 | CCGGCGAG | 0.285
207 | AGGTTTAA | 0.102
208 | ATTCAGTG | 0.0284
209 | AGACTATC | -0.0355
210 | TAGGGAGA | -0.0689
211 | AGGCGTGC | -0.116
212 | AGCGCACG | -0.0806
213 | ACAGTAGG | -0.179
214 | ATCGCGCA | -0.117
215 | GAACACAA | -0.0174
216 | GTCATCAC | -0.256
217 | GCCTCTCC | -0.195
218 | AATATTAG | 0.0179
219 | ATGCTGAA | -0.016
